Data published in article PMC4491177, “Co-translational capturing of nascent ribosomal proteins by their dedicated chaperones” (Nature Communications, 2015).
No constants are given. Whether binding was seen depends on the method and setting. Some binding calls cover weakened binding; strength is not graded here. Where a sequence is shown, tags or fusion partners need not be part of it.

T1: Sqt1 (yeast two-hybrid fusion) (S. cerevisiae) (UniProt P35184)
T1 sequence: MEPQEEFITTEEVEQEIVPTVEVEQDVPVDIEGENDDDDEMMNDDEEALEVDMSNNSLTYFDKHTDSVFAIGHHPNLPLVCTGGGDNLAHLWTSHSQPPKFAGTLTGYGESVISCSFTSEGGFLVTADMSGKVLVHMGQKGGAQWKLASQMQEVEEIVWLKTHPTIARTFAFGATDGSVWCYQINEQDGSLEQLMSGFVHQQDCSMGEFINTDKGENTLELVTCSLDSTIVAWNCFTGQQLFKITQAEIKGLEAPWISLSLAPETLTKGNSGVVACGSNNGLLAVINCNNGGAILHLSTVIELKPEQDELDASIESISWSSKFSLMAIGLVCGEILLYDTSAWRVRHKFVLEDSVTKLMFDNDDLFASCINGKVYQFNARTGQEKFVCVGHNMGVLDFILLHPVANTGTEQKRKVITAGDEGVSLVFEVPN

B1: Rpl10 Arg10 to alanine (yeast two-hybrid fusion) (protein, UniProt P41805 1-221)
chain: MARRPARCYAYQKNKPYPKSRYNRAVPDSKIRIYDLGKKKATVDEFPLCVHLVSNELEQLSSEALEAARICANKYMTTVSGRDAFHLRVRVHPFHVLRINKMLSCAGADRLQQGMRGAWGKPHGLAARVDIGQIIFSVRTKDSNKDVVVEGLRRARYKFPGQQKIILSKKWGFTNLDRPEYLKKREAGEVKDDGAFVKFLSKKGSLENNIREFPEYFAAQA
B2: Rpl10 Arg4 to glutamate (yeast two-hybrid fusion) (protein, UniProt P41805 1-221)
chain: MAREPARCYRYQKNKPYPKSRYNRAVPDSKIRIYDLGKKKATVDEFPLCVHLVSNELEQLSSEALEAARICANKYMTTVSGRDAFHLRVRVHPFHVLRINKMLSCAGADRLQQGMRGAWGKPHGLAARVDIGQIIFSVRTKDSNKDVVVEGLRRARYKFPGQQKIILSKKWGFTNLDRPEYLKKREAGEVKDDGAFVKFLSKKGSLENNIREFPEYFAAQA
B3: Rpl10 double substitution of Arg3/Arg4 to alanine (yeast two-hybrid fusion) (protein, UniProt P41805 1-221)
chain: MAAAPARCYRYQKNKPYPKSRYNRAVPDSKIRIYDLGKKKATVDEFPLCVHLVSNELEQLSSEALEAARICANKYMTTVSGRDAFHLRVRVHPFHVLRINKMLSCAGADRLQQGMRGAWGKPHGLAARVDIGQIIFSVRTKDSNKDVVVEGLRRARYKFPGQQKIILSKKWGFTNLDRPEYLKKREAGEVKDDGAFVKFLSKKGSLENNIREFPEYFAAQA
B4: Rpl10 Arg10 to glutamate (yeast two-hybrid fusion) (protein, UniProt P41805 1-221)
chain: MARRPARCYEYQKNKPYPKSRYNRAVPDSKIRIYDLGKKKATVDEFPLCVHLVSNELEQLSSEALEAARICANKYMTTVSGRDAFHLRVRVHPFHVLRINKMLSCAGADRLQQGMRGAWGKPHGLAARVDIGQIIFSVRTKDSNKDVVVEGLRRARYKFPGQQKIILSKKWGFTNLDRPEYLKKREAGEVKDDGAFVKFLSKKGSLENNIREFPEYFAAQA

Target: T1, Sqt1 (yeast two-hybrid fusion) (S. cerevisiae)
Experiment: two-hybrid; bait fused to the Gal4 DNA-binding domain, prey to the Gal4 activation domain, reporter strain PJ69-4A; HIS3 and ADE2 reporters, plates 3 days at 30 °C

Binder | binding
B1 | binds
B2 | binds
B3 | binds
B4 | no binding
